Inconclusive means that the source gave no clear call. Such entries were picked first, then a sample of the others. For some assays here: Where the call is inconclusive, the potency comes from a doubtful curve fit. The source holds several records for some structures; these can differ, active in one and inactive in another. Active and inactive are the calls of the source. Unless noted, the call rests on the fitted dose curve.
What was measured:
[1] = p53 small molecule agonists, cell-based qHTS assay with human liver microsomes (AID 1963577); settings: HCT-116 p53RE-bla with human liver microsomes, ratio, 16 h; activation: at 66 µM (top of the series) unless noted;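 on activation: p53 response element beta-lactamase reporter cells with liver microsomes plus NADPH; on the % scale 0 is the no-effect control and ±100 the full control effect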
Procedure, shortened: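 Metabolically competent format: test substances, human liver microsomes and NADPH (both 0.5 mg/mL final) incubated with p53RE-bla cells 16 h at 37 C. Beta-lactamase reporter signal then quantified by fluorescence.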

Sequences of proteins named here, by UniProt entry; tags and fusion partners are left off. A change or cut given only in a name is not applied to a line headed by its entry.
UniProt P28223, whole entry, looked up: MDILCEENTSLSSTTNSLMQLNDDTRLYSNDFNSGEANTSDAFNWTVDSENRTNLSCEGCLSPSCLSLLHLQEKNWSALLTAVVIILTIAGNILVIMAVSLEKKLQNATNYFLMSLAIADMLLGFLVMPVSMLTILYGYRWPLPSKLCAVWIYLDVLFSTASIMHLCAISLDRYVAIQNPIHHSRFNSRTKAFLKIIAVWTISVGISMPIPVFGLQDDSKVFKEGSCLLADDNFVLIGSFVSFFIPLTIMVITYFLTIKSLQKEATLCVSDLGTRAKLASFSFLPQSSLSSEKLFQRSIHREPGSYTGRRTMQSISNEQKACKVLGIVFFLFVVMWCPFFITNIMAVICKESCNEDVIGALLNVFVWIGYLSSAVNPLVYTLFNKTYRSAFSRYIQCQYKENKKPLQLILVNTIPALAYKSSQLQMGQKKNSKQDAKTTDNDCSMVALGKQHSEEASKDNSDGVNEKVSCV
UniProt P11229: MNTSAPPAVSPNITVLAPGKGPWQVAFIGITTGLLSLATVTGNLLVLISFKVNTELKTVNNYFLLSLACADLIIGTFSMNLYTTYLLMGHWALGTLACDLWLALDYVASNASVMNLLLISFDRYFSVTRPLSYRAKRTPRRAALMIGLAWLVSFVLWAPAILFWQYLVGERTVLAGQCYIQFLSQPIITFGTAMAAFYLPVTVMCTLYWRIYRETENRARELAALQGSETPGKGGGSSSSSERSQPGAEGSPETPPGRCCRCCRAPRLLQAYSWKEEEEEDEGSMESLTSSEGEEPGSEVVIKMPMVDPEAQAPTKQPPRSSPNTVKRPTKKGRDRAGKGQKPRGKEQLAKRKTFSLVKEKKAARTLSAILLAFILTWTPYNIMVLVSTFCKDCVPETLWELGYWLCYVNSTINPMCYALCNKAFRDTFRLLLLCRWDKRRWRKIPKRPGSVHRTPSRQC
UniProt P14416, whole entry, looked up: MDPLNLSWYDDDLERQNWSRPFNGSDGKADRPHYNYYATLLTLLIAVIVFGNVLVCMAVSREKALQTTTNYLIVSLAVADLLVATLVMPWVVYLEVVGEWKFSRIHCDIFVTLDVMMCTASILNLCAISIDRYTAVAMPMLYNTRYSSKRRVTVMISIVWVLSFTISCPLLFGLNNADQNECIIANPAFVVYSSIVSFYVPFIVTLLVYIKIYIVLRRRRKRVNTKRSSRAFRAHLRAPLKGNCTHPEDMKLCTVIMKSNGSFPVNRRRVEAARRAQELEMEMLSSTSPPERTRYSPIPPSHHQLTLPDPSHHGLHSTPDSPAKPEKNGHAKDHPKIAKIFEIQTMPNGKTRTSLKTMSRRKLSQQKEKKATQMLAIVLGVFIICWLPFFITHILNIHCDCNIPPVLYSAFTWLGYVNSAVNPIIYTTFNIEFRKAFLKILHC

[2] = p53 small molecule agonists, cell-based qHTS assay (AID 1963582; active means well fitted activation curve with a large enough effect in the signal ratio in the repeat runs, not every such curve was filed as active; inconclusive means weak or mixed curves; the % refers to the signal ratio; on activation: on the % scale 0 is the no-effect control and ±100 the full control effect); settings: HCT-116 p53RE-bla reporter, beta-lactamase FRET ratio, 16 h; activation: at 66 µM (top of the series) unless noted
Procedure, shortened: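 p53RE-bla reporter cells, compounds added in DMSO after 5 h plating, incubated 16 h at 37 C. Beta-lactamase read via 2 h room-temperature LiveBLAzer B/G FRET substrate, fluorescence intensity.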

[3] = cAMP Responsive Elements (CRE) small molecule antagonists, cell-based qHTS assay (AID 1963591; active means well fitted inhibition curve with a large enough effect in the signal ratio in the repeat runs, not every such curve was filed as active; inconclusive means weak or mixed curves, or effect the other way; the % refers to the signal ratio; on activity change, negative = inhibition: on the % scale 0 is the no-effect control and ±100 the full control effect); settings: CRE-bla HEK293T, beta-lactamase FRET ratio; activity change, negative = inhibition: at 92.4 µM (top of the series) unless noted
Procedure, shortened: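 CRE-bla HEK293T cells plated 18 h, then given compound plus NKH477 at 0.25 uM final for 3 h at 37C. Beta-lactamase reporter read with LiveBLAzer B/G FRET substrate after 2 h at room temperature.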

[4] = target: Beta-2 adrenergic receptor (Homo sapiens) (UniProt P07550); assay: Adrenergic beta2 receptor (ADRB2) small molecule agonists, cell-based qHTS assay (AID 1963593); settings: CHO-ADRB2 cells, cAMP HTRF, 30 min;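 on activation: CHO cells stably overexpressing human ADRB2; on the % scale 0 is the no-effect control and ±100 the full control effect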
Procedure, shortened: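 CHO cells stably over-expressing ADRB2 were plated overnight at 37C, then dosed with compounds plus a stimulation mix containing 100uM IBMX and 25uM Ro-20-1724 for 0.5hr at room temperature. cAMP was measured by HTRF competition, 1hr.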

[5] = target: 5-hydroxytryptamine receptor 2A (Homo sapiens) (UniProt P28223); assay: 5-hydroxytryptamine receptor 2A (HTR2A) small molecule antagonists, cell-based qHTS assay (AID 1963586); further: nearly all actives have a fitted effect of over 45% in size
Procedure, shortened: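 Antagonist-mode intracellular calcium assay: DOI (4 nM) added after 5 min compound pre-incubation at room temperature to dye-loaded HTR2A-CHO cells. Fluorescence followed for 3 min, sampled every second.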

[6] = target: Muscarinic acetylcholine receptor M1 (Homo sapiens) (UniProt P11229); assay: Cholinergic receptor muscarinic 1 (CHRM1) small molecule agonists, cell-based qHTS assay (AID 1963589); further: nearly all actives have a fitted effect of over 35% in size
Procedure, shortened: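 CHO cells stably expressing human CHRM1 were loaded with calcium dye for 1 h at 37 C, then compound was added in agonist mode. Intracellular calcium fluorescence was followed kinetically at 1 s intervals. Fifteen concentrations were tested in three independent runs.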

[7] = cAMP Responsive Elements (CRE) small molecule agonists, cell-based qHTS assay (AID 1963590); settings: CRE-bla HEK293T, beta-lactamase FRET ratio, 3 h; activation: at 92.4 µM (top of the series) unless noted
Procedure, shortened: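 CRE-bla HEK 293T cells, 2,000/well in DMEM with 10% dialyzed FBS and 25 mM HEPES, pre-incubated 18 h at 37 C, then exposed to compound 3 h at 37 C. Beta-lactamase reporter read with LiveBLAzer B/G FRET substrate after 2 h at room temperature.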

[8] = target: 5-hydroxytryptamine receptor 2A (Homo sapiens) (UniProt P28223); assay: 5-hydroxytryptamine receptor 2A (HTR2A) small molecule agonists, cell-based qHTS assay (AID 1963587); further: nearly all actives have a fitted effect of over 30% in size
Procedure, shortened: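 HTR2A-CHO cells, plated 18 h at 37 C/5% CO2, dye-loaded 1 h at 37 C; compounds in DMSO added by pin tool (agonist mode). Intracellular calcium flux read as kinetic fluorescence on FDSS over 2 min at 1 s intervals.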

[9] = target: Muscarinic acetylcholine receptor M1 (Homo sapiens) (UniProt P11229); assay: Cholinergic receptor muscarinic 1 (CHRM1) small molecule antagonists, cell-based qHTS assay (AID 1963588); further: nearly all actives have a fitted effect of over 40% in size
Procedure, shortened: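 CHRM1-CHO calcium-flux assay, antagonist mode. Cells were seeded 18 h, dye-loaded 1 h at 37 C and given compound for 5 min at RT, then acetylcholine was added at 50nM. FDSS fluorescence was read 3 min; 15 concentrations, three runs.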

[10] = target: D(2) dopamine receptor (Homo sapiens) (UniProt P14416); assay: Dopamine D2 receptor (DRD2) small molecule agonists, cell-based qHTS assay (AID 1963594); settings: HEK293-DRD2 cAMP HTRF, agonist mode, 30 min; activation: at 92.4 µM (top of the series) unless noted; further: nearly all actives have a fitted effect of over 35% in size
Procedure, shortened: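 HEK293 cells stably expressing DRD2 were cultured 24 h at 37 C, then given Ro20-1724 (0.1 mM final) and compounds for 10 min at room temperature. NKH477 (200nM) was then added for 30 min. cAMP was read by HTRF.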

[11] = target: D(2) dopamine receptor (Homo sapiens) (UniProt P14416); assay: Dopamine D2 receptor (DRD2) small molecule antagonists, cell-based qHTS assay (AID 1963595; active means well fitted inhibition curve with a large enough effect in the signal ratio in the repeat runs, with a control signal flat; inconclusive means weak or mixed curves, or effect the other way; the % refers to the signal ratio); settings: HEK293-DRD2 cAMP HTRF antagonist mode; activity change, negative = inhibition: at 92.4 µM (top of the series) unless noted
Procedure, shortened: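 HEK293 cells stably expressing DRD2 were preincubated with 0.1 mM Ro20-1724, then with compound for 10 min at room temperature. Cells were stimulated with 200 nM NKH477 plus 12 nM quinpirole for 30 min, and cAMP was read by HTRF.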

[12] = activation: at 92.4 µM (top of the series) unless noted
Potency means the concentration at half of the fitted maximal effect.

For `CC1(C)O[C@@H]2C[C@H]3[C@@H]4CCC5=CC(=O)CC[C@]5(C)[C@@]4(F)[C@@H](O)C[C@]3(C)[C@]2(C(=O)CCl)O1`, which Potency [1] is on record?
The Potency was inconclusive: 17.8 µM [rising, partial curve, poor fit].

And the Potency [2]?
The Potency was “inactive”.

And the Potency [3]?
Its Potency is inconclusive: 9.44 µM [activator, full curve, poor fit].

What about the Potency [4, 12] of the same compound?
Its Potency is “inactive”.

For `O[Si](c1ccccc1)(c1ccccc1)c1ccccc1`, which Potency [1] is on record?
The Potency was inconclusive: 51.3 µM [rising, partial curve, poor fit].

And the Potency [2]?
Its Potency is inconclusive: 51.3 µM [rising, single point].

What about the activation [4, 12] of the same compound?
The activation was inconclusive: -34.2%.

Which Potency [1] does the source give for `COC(=O)CC(=O)OC` here?
The Potency was inconclusive: 47.7 µM [fluorescent].

And the Potency [5]?
The Potency was inconclusive: 0.0025 µM [inhibitor, full curve, poor fit].

What about the Potency [6] of the same compound?
Its Potency is active: 20.3 µM.

And the Potency [3]?
Its Potency is “inactive”.

And the activation [4, 12]?
Its activation is inconclusive: -2.36%.

And the activation ([4]; at 92.4 µM (top of the series))?
The activation was inactive: 5.64%.

With `O=P(O)(O)C(O)(Cc1cccnc1)P(=O)(O)O` as the compound, how does the Potency [1] read?
The Potency was “inactive”.

What about the Potency [2] of the same compound?
The Potency was “inactive”.

And the Potency [4, 12]?
Its Potency is inconclusive: 7.5 µM [inhibitor, single point].

For `CN1CCN(C(=O)C2CCCCC2)CC1`, which activation [1] is on record?
The activation was inconclusive: 17.2% [at 30.3 µM].

And the Potency [5]?
The Potency was “inactive”.

And the Potency [7]?
The Potency was inconclusive: 0.0335 µM [falling, full curve, poor fit].

For `Nc1ccc(C(=O)O)cc1`, which Potency [1] is on record?
Its Potency is “inactive”.

What about the Potency [5] of the same compound?
The Potency was “inactive”.

And the Potency [7]?
Its Potency is inconclusive: 11.9 µM [rising, single point].

What about the activation [4, 12] of the same compound?
The activation was inconclusive: 2.67% [at 42.5 µM].

For `CCO[Si](CCCNC(N)=O)(OCC)OCC`, which activation [1] is on record?
Its activation is inconclusive: -3.22%.

And the Potency [2]?
Its Potency is “inactive”.

And the activation [4, 12]?
Its activation is inconclusive: 0.78%.

And the activation ([4]; at 92.4 µM (top of the series))?
The activation was inactive: 1.14%.

For `CCCC(CCC)(C(=O)OCC)C(=O)OCC`, which activation [1] is on record?
The activation was inconclusive: 11.6% [at 30.3 µM].

What about the Potency [5] of the same compound?
Its Potency is active: 3.26 µM.

What about the Potency [8] of the same compound?
The Potency was active: 1.69 µM.

And the activation [4, 12]?
Its activation is inconclusive: -50.9% [at 42.5 µM].

With `CCCCOCCOC(=O)c1cccnc1` as the compound, how does the Potency [1] read?
Its Potency is “inactive”.

What about the Potency [5] of the same compound?
The Potency was “inactive”.

And the activation [4, 12]?
Its activation is inconclusive: -0.0193% [at 42.5 µM].

With `COc1ccc(S(=O)(=O)Nc2nnc(CC(C)C)s2)cc1` as the compound, how does the Potency [1] read?
Its Potency is inconclusive: 22.3 µM [fluorescent, single point].

And the Potency [5]?
Its Potency is inconclusive: 2.31 µM [inhibitor, partial curve, poor fit].

With `CNCc1cc(F)ccc1Oc1ccc(Cl)c(Cl)c1` as the compound, how does the Potency [1] read?
Its Potency is inconclusive: 32.4 µM [fluorescent, partial curve, poor fit].

And the Potency [5]?
Its Potency is active: 0.266 µM.

And the Potency [8]?
Its Potency is inconclusive: 54.9 µM [activator, single point].

And the Potency [9]?
The Potency was inconclusive: 10.6 µM [inhibitor, full curve, poor fit].

What about the Potency [4, 12] of the same compound?
The Potency was “inactive”.

And the Potency [10]?
Its Potency is inconclusive: 54.5 µM [falling, partial curve, poor fit].

What about the Potency [11] of the same compound?
Its Potency is inconclusive: 77 µM [inhibitor, single point].

What does the source list for `CC(C)NCC(O)COc1ccc(CCOCC2CC2)cc1` (stereo not drawn)?
activation [1]: inconclusive: -4.22% [at 30.3 µM]; Potency [5]: inconclusive: 20.5 µM [inhibitor, single point]; activity change, negative = inhibition [3]: inconclusive: -11.8% [at 42.4 µM]; Potency [10]: inconclusive: 1.41 µM

For `CN(C)CCCN(C)C`, which Potency [1] is on record?
Its Potency is inconclusive: 0.998 µM [fluorescent, full curve].

And the activation [2]?
Its activation is inactive: 3.48% [at 5.99 µM].

What about the activation [4, 12] of the same compound?
Its activation is inconclusive: 5.16% [at 8.39 µM].

And the activation [10]?
The activation was inconclusive: 25.3% [at 8.39 µM].

With `CCCCCCCCCCCCCCCCN(C)C` as the compound, how does the Potency [1] read?
The Potency was inconclusive: 2.59 µM [fluorescent].

And the activation [2]?
The activation was inactive: 9.5% [at 5.99 µM].

What about the activation [4, 12] of the same compound?
The activation was inconclusive: -43% [at 8.39 µM].

With `CCC(C)N(C)C(=O)c1cc2ccccc2c(-c2ccccc2Cl)n1` (stereo not drawn) as the compound, how does the Potency [1] read?
The Potency was “inactive”.

And the Potency [5]?
The Potency was “inactive”.

And the Potency [8]?
Its Potency is inconclusive: 35.5 µM [activator, single point].

What about the Potency [7] of the same compound?
Its Potency is “inactive”.

What about the activity change, negative = inhibition [3] of the same compound?
The activity change, negative = inhibition was inconclusive: 11.8% [at 42.4 µM].

What about the activation [4, 12] of the same compound?
Its activation is inconclusive: -17.6% [at 42.5 µM].

With `COCCc1ccc(OCC2CO2)cc1` (stereo not drawn) as the compound, how does the activation [1] read?
Its activation is inconclusive: 4.83% [at 30.3 µM].

And the Potency [2]?
The Potency was inconclusive: 0.793 µM [falling, full curve, poor fit].

What about the Potency [4, 12] of the same compound?
The Potency was “inactive”.

What about the activation [10] of the same compound?
The activation was inconclusive: -22.2% [at 42.5 µM].

For `NCc1ccccc1`, which activation [1] is on record?
The activation was inconclusive: 11.7%.

And the Potency [2]?
The Potency was inconclusive: 10.2 µM [falling, full curve, poor fit].

And the Potency [4, 12]?
Its Potency is “inactive”.

What about the Potency [11] of the same compound?
The Potency was “inactive”.

Reference: PubChem BioAssay (Tox21)
